Test results: the supplement of paper PMC4683952
Some of the results follow. No stated cut-off is given here; in the data, active = 2 or more and inactive = the rest. Most values lie within the scatter of the assay; repeated measurements hardly agree.

test system: Lgr5 (MarsCy1-Lgr5-EGFP, U2OS); assay: cell-surface Lgr5 expression (SCi1 fluorescence, background-subtracted) relative to WT DMSO (fold of DMSO control); higher = more Lgr5 at the plasma membrane; details: U2OS MarsCy1-Lgr5-EGFP stable; treatment time: overnight; library: ActiProbe-5K (TimTec); 25 µM

cell-surface Lgr5 expression, inactive:
O=C(CSc1nnc[nH]1)Nc1nccs1 0.957, C1=C(Cc2ccccc2)C(c2ccccc2)SC(c2ccccc2)=C1/C=N\c1ccccc1 (configuration not stated) 0.824, Cn1c(SCC(=O)O)nc2sc3c(c2c1=O)CCCC3 1.41, CC(=O)C1C(=O)CC(c2ccco2)CC1=O (configuration not stated) 1.1, Fc1cnc(Nc2ccccc2)nc1Nc1ccccc1 0.672, CCOC(=O)C1=C(C)N=c2s/c(=C/c3cccs3)c(=O)n2C1c1cccs1 (configuration not stated) 0.779, Fc1ccc(NC(=S)NCC2CCCO2)cc1Cl (configuration not stated) 1.27, C/N=C1\S/C(=C/c2cccn2-c2ccc(N(C)C)cc2)C(=O)N1C 1.08, Cc1nn(Cc2noc(C(=O)NCC3CCCO3)n2)c(C)c1Br (configuration not stated) 0.923, CC(=O)c1c(NCc2ccco2)oc(C)cc1=O 1.02, COC(=O)C1(C(F)(F)F)N=C2Sc3ccccc3N2C(=O)N1 (configuration not stated) 1.11, O=[N+]([O-])c1ccc(-[n+]2nc(-c3ccccc3)nn2-c2ccccc2)cc1.[Br-] 0.949, Cc1nc2sc(C#N)c(N)c2c(C)c1Cl 1.07, CC1(C)OC(=O)N(CC2CCCO2)C1(C)O (configuration not stated) 1.11, c1(N\N=C(\C)C)nccc2c1cccc2 1.46, O=C1CSC2(C(=O)Nc3ccccc32)N1c1ccc2c(c1)oc1ccccc12 (configuration not stated) 1.06, CS(=O)(=O)c1ccccc1 1.14, COc1ccccc1OCCSc1nc2ccccc2o1 0.956, Nc1nonc1/C(=N\O)N1CCCC1 1.22, Cc1cc(C)c2c(C)cc(Cl)nc2c1 1.69, Nc1ccc(S(=O)(=O)Nc2ccc3cn[nH]c3c2)cc1 0.858, Cc1cc(O)c(C(C)(C)C)cc1Sc1cc(C(C)(C)C)c(O)cc1C 0.656, CN(c1nc2ccccn2c(=O)c1/C=C1/SC(=S)N(C2CCS(=O)(=O)C2)C1=O)C1CCCCC1 (configuration not stated) 1.59, CCCCc1ccc(C(C2C(=O)CC(C)(C)CC2=O)C2C(=O)CC(C)(C)CC2=O)s1 1.09, CN(C)c1c2c(c(C#N)c3nc4ccccc4n13)CCC2 1.07, O=[N+]([O-])c1ccn(CCl)n1 1.21, Oc1ccc2oc3c(c2c1)CCCC3 0.677, Nc1nc(S)c2ncn(C3OC(CO)C(O)C3O)c2n1 (configuration not stated) 0.487, Nc1sc2c(c1CO)CCCC2 1.33, N#CC1=C(N)SC(c2cccs2)C(C#N)=C1N (configuration not stated) 1.12, CN1N=C(C(=O)O)CCC1=O 1.29, CC(C)(O)c1cn2ccccc2n1 1.21, CC1CCN(Cn2nc(-c3ccco3)n(C)c2=S)CC1 1.11, O=C(Nc1nccs1)C12CC3CC(CC(C3)C1)C2 0.83, CN(C)S(=O)(=O)N1CCN(Cc2ccc3c(c2)OCO3)CC1 0.985, CCn1nc(C)c(C=O)c1C 1.08, N#Cc1ccc(-c2ccncc2)nc1SCc1cccnc1 1.2, Nc1nc(SCc2ccc(Cl)cc2)ns1 1.11, CC1(C)Nc2ccc(C(c3ccccc3)(c3ccccc3)c3ccccc3)cc2-c2c1ssc2=S 1.13, Brc1ccc2nc3c(n2c1)CCCC3 1.07, O=C1NC2C=CC=CC2/C1=N\Nc1nc2ccccc2c(=O)n1-c1ccccc1 (configuration not stated) 1.31, CCOC(=O)c1n[nH]c2c([N+](=O)[O-])n[nH]c12 1.3, Cc1c(-c2cc(C(=O)[O-])no2)cnn1C 0.999, CN(C)c1cccc2c(S(=O)(=O)NN)cccc12 1.07, C[N+](C)(Cc1ccccc1)Cc1ccccc1.[Cl-] 0.83, COc1cc(F)c(S(=O)(=O)N2CCOc3ccccc32)cc1OC 1.29, CCn1cc(Cn2cc(N)cn2)c(C)n1 1.31, Fc1ccc(-c2nnc3n2N=C(c2ccc4c(c2)OCO4)CS3)cc1 1.2, O=[N+]([O-])c1ccc2c(c1)oc1ccc(S(=O)(=O)Nc3ccc4c(c3)OCCO4)cc12 0.82, Oc1ccc(Cl)cc1-c1cc(C(F)(F)C(F)F)on1 1.09, N#CC1=C(N)OC2=C(C(=O)CCC2)C1c1ccc(Cl)s1 (configuration not stated) 1.15, CCCCNC(=O)OCCSC(=S)NC(C)(C)C 1.14, O=C1OC(c2ccccc2)=N/C1=C\c1coc2c(Cl)cc(Cl)cc2c1=O 1.47, CN(C)S(=O)(=O)Nc1ccc(Br)cc1 1, COc1cc(C2Nc3cccc4cccc(c34)N2)cc(OC)c1OC 1.1, NC(=O)c1sc2sc(C(N)=O)c(N)c2c1N 1.22, CCCC(C)C(=O)Nc1nnc(C(C)C)s1 (configuration not stated) 1.38, Cn1c(=O)c2c(ncn2CC(O)CNC=O)n(C)c1=O (configuration not stated) 1.23, CC1(C)O[C@H]2O[C@H]([C@H]3COC(C)(C)O3)[C@H](O)[C@H]2O1 0.978, COc1cc(OC)c2nc(N)sc2c1 0.979, CC(C)Cc1cc(C(=O)O)nc(=O)[nH]1 1.28, CCn1nccc1CN(C)S(=O)(=O)c1cccs1 1.31, Cc1nnc(SCC2=C(C(=O)O)N3C(=O)C(NC(=O)Cn4cnnn4)C3SC2)s1 (configuration not stated) 1.02, O=c1cc2ncc(-c3n[nH]c(-c4cnc5cc(=O)[nH]n5c4)c3[N+](=O)[O-])cn2[nH]1 1.18, CC1=CCC2C3COC(O3)C(=O)C2C1 (configuration not stated) 1.25, O=[N+]([O-])c1ccc(F)c(/N=C\c2ccc(Br)s2)c1 1.18, CCc1nc2sc3c(O)nc(=O)[nH]c3c2c(C(F)(F)F)c1C 1.32, O=C(O)c1[nH]nc([N+](=O)[O-])c1Cl 1.05, COC(=O)c1c(NS(C)(=O)=O)sc2c1CCCC2 1.12, O=[N+]([O-])c1cc(Br)c2nsnc2c1N1CCCCC1 1.28, Clc1nc(-c2ccccc2)nc2c1CCC2 0.989, Cc1nc2sc(C#N)c(N)c2c(C)c1C 0.92, CN1C(=O)/C(=C\C=C2\CCCN2C)N(C)C1=S 1.26, COc1ccc(S(=O)(=O)N(C)C)cc1 0.897, CN1C(=O)C(CC(N)=O)NC1=S (configuration not stated) 1.16, C=CCNC(=S)N/N=C1/C2CN3CCN(C2)CC1(C)C3 1.06, Nc1nnnn1/N=C\c1cc(Br)ccc1O 1.25, C=CCN(CC=C)C(=O)Cc1cccs1 1.1, CN(C)/C=C1\C(=N)N(C)C(=O)N(C)C1=O 1.32, c1ccc(N2N=C3N(c4ccccc4)C2N3c2ccccc2)cc1 1.38, O=C1c2ccccc2-c2nc3ccccc3nc21 1.17, CN(C)c1cccc2c(S(N)(=O)=O)cccc12 1.28, O=[N+]([O-])c1cc(C(F)(F)F)c(Cl)cc1Cl 1.1, CCOC(=O)c1nonc1N 1.28, Cc1cc2c(c(O)c1-c1c(C)cc3c(c1O)/C(=C\NCSN)C(=O)C(O)=C3C(C)C)/C(=C/NCSN)C(=O)C(O)=C2C(C)C 1.37, Clc1ccc(/C=N\c2ccc(Cl)cn2)cc1 1.2, O=c1[nH]cnc2c1oc1ccc(Cl)cc12 1.43, c1ccc(-n2nnnc2SC2CCC3SC2CCC3Sc2nnnn2-c2ccccc2)cc1 (configuration not stated) 1.1, c1cc(-c2nc(-c3ccncc3)c(-c3ccncc3)[nH]2)ccn1 0.941, C#CCn1c(COc2ccc(OC)cc2)nc2ccccc21 1.18, C#CCOc1c(Br)cc(/C=C2/SC(=S)NC2=O)cc1OC 1.31, c1ccc(CCNc2ccncn2)nc1 1.06, CN(C)c1ccc2sc(S)nc2c1 0.889, S=C(NC1c2ccccc2Oc2ccccc21)c1ccccc1 0.805, Nc1cc(SCc2cccnc2)nc(N)n1 1.04, O=c1c2c3c(sc2nc2n1CCCCC2)CCCCC3 1.22, Cc1nc(-c2n[nH]c(C)n2)n[nH]1 1.23, CCOC(=O)c1nsc2c(OCC)ncnc12 0.893, C[n+]1ccc(/C=C\c2cccs2)cc1 1.07, O=c1nc(O)c2sc3nc4c(cc3c2[nH]1)CCCC4 1.16, C=CCNC(=S)N/N=C/c1ccc(OC)c(CSC2=NC3C=CC=CC3S2)c1 (configuration not stated) 0.627, O=S(=O)(Nc1ccc2c(c1)OCO2)c1ccc(Cl)cc1 0.924, O=c1oc(C23CC4CC(CC(C4)C2)C3)ns1 1.18, Brc1ccc(-c2noc(-c3cccs3)n2)o1 1.19, Cc1[nH]nc2c1C1(CCOCC1)C(C#N)=C(N)O2 1.05, Cc1cc(C)c(C#[N+][O-])c(C)c1 1.31, O=S1(=O)N=C(Nc2cccc3c(O)cccc23)c2ccccc21 1.08
